Some of the results follow. Many values rest on one well or one pass, so single values are uncertain.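 Cells were imaged in 1,536-well plates, and nuclei stained with an antibody against cleaved PARP were counted against all DNA-stained nuclei to give the apoptosis fraction. Screening doses were chosen to leave most cells alive, and resting and induced cleaved-PARP levels differ strongly between cell lines.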
These compounds were tested on WM3619 (assay: cleaved PARP positive nuclei fraction relative to DMSO control; melanoma cells; higher = more apoptosis). Conditions: library dose: low library concentration; 72 h.

SMILES	cleaved PARP positive nuclei fraction
CC[C@]1(O)C[C@H]2CN(CCc3c([nH]c4ccccc34)[C@@](C(=O)OC)(c3cc4c(cc3OC)N(C=O)[C@H]3[C@@](O)(C(=O)OC)[C@H](OC(C)=O)[C@]5(CC)C=CCN6CC[C@]43[C@@H]65)C2)C1 [vincristine] + O=C(Nc1ccccc1)c1cc([N+](=O)[O-])ccc1Cl [GW9662] (first compound 0.0001 µM, partner dose 2 µM)	163%
O=C(Nc1cc(C(F)(F)F)cc(C(F)(F)F)c1)c1cc(Cl)ccc1O + Cn1cnc2c(F)c(Nc3ccc(Br)cc3Cl)c(C(=O)NOCCO)cc21 [selumetinib] (first compound 0.016 µM, partner dose 0.015 µM)	81.2%
O=C(/C=C/c1cccnc1)NCCCCC1CCN(C(=O)c2ccccc2)CC1 + COc1cc2c(Oc3ccc4[nH]c(C)cc4c3F)ncnc2cc1OCCCN1CCCC1 [cediranib] (first compound 0.01 µM, partner dose 0.4 µM)	101%
CCCCCCCCCCCCCCCCCCOP(=O)([O-])OC1CC[N+](C)(C)CC1 [Perifosine] + CNC(=O)c1cc(Oc2ccc(NC(=O)Nc3ccc(Cl)c(C(F)(F)F)c3)cc2)ccn1 [sorafenib] (first compound 0.4 µM, partner dose 0.4 µM)	95.8%
CCCCCCCCCCCCCCCCCCOP(=O)([O-])OC1CC[N+](C)(C)CC1 [Perifosine] + OCCn1cc(-c2cnc3nnn(Cc4ccc5ncccc5c4)c3n2)cn1 [PF04217903] (first compound 0.4 µM, partner dose 1 µM)	118%
CC[C@]1(O)C[C@H]2CN(CCc3c([nH]c4ccccc34)[C@@](C(=O)OC)(c3cc4c(cc3OC)N(C=O)[C@H]3[C@@](O)(C(=O)OC)[C@H](OC(C)=O)[C@]5(CC)C=CCN6CC[C@]43[C@@H]65)C2)C1 [vincristine] + c1cc(-c2cnn3cc(-c4ccc(OCCN5CCCCC5)cc4)cnc23)ccn1 [Dorsomorphin] (first compound 0.0001 µM, partner dose 0.4 µM)	190%
O=C(Nc1cc(C(F)(F)F)cc(C(F)(F)F)c1)c1cc(Cl)ccc1O + CS(=O)(=O)c1ccc(C(=O)Nc2ccc(Cl)c(-c3ccccn3)c2)c(Cl)c1 [vismodegib] (first compound 0.016 µM, partner dose 1 µM)	76.2%
N#CC[C@H](C1CCCC1)n1cc(-c2ncnc3[nH]ccc23)cn1 [ruxolitinib] + CN1CCN(c2ccc3nc(-c4c(N)c5c(F)cccc5[nH]c4=O)[nH]c3c2)CC1 [Dovitinib] (first compound 1 µM, partner dose 0.1 µM)	77.9%
CCCCCCCCCCCCCCCCCCOP(=O)([O-])OC1CC[N+](C)(C)CC1 [Perifosine] + Nc1ncn([C@H]2C[C@H](O)[C@@H](CO)O2)c(=O)n1 [decitabine] (first compound 0.4 µM, partner dose 0.1 µM)	101%
O=c1[nH]nc(Sc2ncc([N+](=O)[O-])s2)n1-c1ccc2c(c1)OCCO2 + O=S(=O)(c1ccccc1)N(CC(F)(F)F)c1ccc(C(O)(C(F)(F)F)C(F)(F)F)cc1 [T0901317] (first compound 0.2 µM, partner dose 1.4 µM)	184%
Cc1cc(Nc2cc(N3CCN(C)CC3)nc(Sc3ccc(NC(=O)C4CC4)cc3)n2)n[nH]1 [Tozasertib] + N#Cc1c(O)c2c(-c3ccc(-c4ccccc4O)cc3)csc2[nH]c1=O [A769662] (first compound 0.006 µM, partner dose 2 µM)	102%
Cc1cn(-c2cc(NC(=O)c3ccc(C)c(Nc4nccc(-c5cccnc5)n4)c3)cc(C(F)(F)F)c2)cn1 [nilotinib] + CCCCCCCCCCCC1=C(O)C(=O)C=C(O)C1=O [Embelin] (first compound 0.2 µM, partner dose 1.2 µM)	86.4%
O=C(Nc1cc(C(F)(F)F)cc(C(F)(F)F)c1)c1cc(Cl)ccc1O + NC(=O)c1ccc(N(C(N)=O)c2c(F)cccc2F)nc1-c1ccc(F)cc1F [VX702] (first compound 0.016 µM, partner dose 0.4 µM)	91.8%
CC[C@]1(O)C[C@H]2CN(CCc3c([nH]c4ccccc34)[C@@](C(=O)OC)(c3cc4c(cc3OC)N(C=O)[C@H]3[C@@](O)(C(=O)OC)[C@H](OC(C)=O)[C@]5(CC)C=CCN6CC[C@]43[C@@H]65)C2)C1 [vincristine] + COc1cc2ncnc(Nc3ccc(Oc4ccccc4)cc3)c2cc1OC [SrcI1] (first compound 0.0001 µM, partner dose 2 µM)	208%
Cc1cn(-c2cc(NC(=O)c3ccc(C)c(Nc4nccc(-c5cccnc5)n4)c3)cc(C(F)(F)F)c2)cn1 [nilotinib] + CN1CCN(c2ccc3nc(-c4c(N)c5c(F)cccc5[nH]c4=O)[nH]c3c2)CC1 [Dovitinib] (first compound 0.2 µM, partner dose 0.1 µM)	81.9%
Cc1cc(Nc2cc(N3CCN(C)CC3)nc(Sc3ccc(NC(=O)C4CC4)cc3)n2)n[nH]1 [Tozasertib] + O=c1[nH]nc(Sc2ncc([N+](=O)[O-])s2)n1-c1ccc2c(c1)OCCO2 [BI78D3] (first compound 0.006 µM, partner dose 0.2 µM)	97.1%
COc1cc([C@@H]2c3cc4c(cc3[C@@H](O[C@@H]3O[C@@H]5CO[C@@H](C)O[C@H]5[C@H](O)[C@H]3O)[C@H]3COC(=O)[C@H]23)OCO4)cc(OC)c1O [etoposide] + C=C(c1ccc(C(=O)O)cc1)c1cc2c(cc1C)C(C)(C)CCC2(C)C [Bexarotene] (first compound 0.02 µM, partner dose 2 µM)	102%
N#CC[C@H](C1CCCC1)n1cc(-c2ncnc3[nH]ccc23)cn1 [ruxolitinib] + Clc1ccc(Nc2nnc(Cc3ccncc3)c3ccccc23)cc1 [vatalanib] (first compound 1 µM, partner dose 2 µM)	95.8%
N#CC[C@H](C1CCCC1)n1cc(-c2ncnc3[nH]ccc23)cn1 [ruxolitinib] + CC(=O)O[C@@]12CO[C@@H]1C[C@H](O)[C@@]1(C)C(=O)[C@H](O)C3=C(C)[C@@H](OC(=O)[C@H](O)[C@@H](NC(=O)OC(C)(C)C)c4ccccc4)C[C@@](O)([C@@H](OC(=O)c4ccccc4)[C@H]21)C3(C)C [Docetaxel] (first compound 1 µM, partner dose 0.0001 µM)	169%
N#CC[C@H](C1CCCC1)n1cc(-c2ncnc3[nH]ccc23)cn1 [ruxolitinib] + C[C@]1(O)C[C@@H](c2nc(-c3ccc4ccc(-c5ccccc5)nc4c3)c3c(N)nccn32)C1 [OSI906] (first compound 1 µM, partner dose 0.4 µM)	87.5%
Cc1cn(-c2cc(NC(=O)c3ccc(C)c(Nc4nccc(-c5cccnc5)n4)c3)cc(C(F)(F)F)c2)cn1 [nilotinib] + O=C(O)C(=O)Nc1sc2c(c1C(=O)O)CCNC2 [TCS401] (first compound 0.2 µM, partner dose 1.66667 µM)	99%
Cc1cc(Nc2cc(N3CCN(C)CC3)nc(Sc3ccc(NC(=O)C4CC4)cc3)n2)n[nH]1 [Tozasertib] + CS(=O)(=O)CCNCc1ccc(-c2ccc3ncnc(Nc4ccc(OCc5cccc(F)c5)c(Cl)c4)c3c2)o1 [lapatinib] (first compound 0.006 µM, partner dose 0.8 µM)	87.7%
CC[C@]1(O)C[C@H]2CN(CCc3c([nH]c4ccccc34)[C@@](C(=O)OC)(c3cc4c(cc3OC)N(C=O)[C@H]3[C@@](O)(C(=O)OC)[C@H](OC(C)=O)[C@]5(CC)C=CCN6CC[C@]43[C@@H]65)C2)C1 [vincristine] + COc1ccc(-c2ccc3c(N4CCOCC4)nc(N4C[C@@H](C)O[C@@H](C)C4)nc3n2)cc1CO [KU0063794] (first compound 0.0001 µM, partner dose 0.02 µM)	123%
O=C(Nc1cc(C(F)(F)F)cc(C(F)(F)F)c1)c1cc(Cl)ccc1O + Cn1nnc2c(C(N)=O)ncn2c1=O [temozolomide] (first compound 0.016 µM, partner dose 2 µM)	91.6%
CCCCCCCCCCCCCCCCCCOP(=O)([O-])OC1CC[N+](C)(C)CC1 [Perifosine] + Cn1cc(/C=C2\C(=O)Nc3cccnc32)c2ccccc21 [GW441756] (first compound 0.4 µM, partner dose 0.4 µM)	88.3%
N#CC[C@H](C1CCCC1)n1cc(-c2ncnc3[nH]ccc23)cn1 [ruxolitinib] + CC1(C)CCC(c2ccc(Cl)cc2)=C(CN2CCN(c3ccc(C(=O)NS(=O)(=O)c4ccc(N[C@H](CCN5CCOCC5)CSc5ccccc5)c(S(=O)(=O)C(F)(F)F)c4)cc3)CC2)C1 [ABT263] (first compound 1 µM, partner dose 0.4 µM)	113%
O=c1[nH]nc(Sc2ncc([N+](=O)[O-])s2)n1-c1ccc2c(c1)OCCO2 + COc1cc2ncnc(Nc3ccc(Oc4ccccc4)cc3)c2cc1OC [SrcI1] (first compound 0.2 µM, partner dose 2 µM)	68.5%
CC[C@]1(O)C[C@H]2CN(CCc3c([nH]c4ccccc34)[C@@](C(=O)OC)(c3cc4c(cc3OC)N(C=O)[C@H]3[C@@](O)(C(=O)OC)[C@H](OC(C)=O)[C@]5(CC)C=CCN6CC[C@]43[C@@H]65)C2)C1 [vincristine] + CN(C)S(=O)(=O)c1ccc2c(c1)/C(=C/c1cc3c([nH]1)CCCC3)C(=O)N2 [SU6656] (first compound 0.0001 µM, partner dose 0.4 µM)	170%

For convenience, part of the list above:
SMILES	cleaved PARP positive nuclei fraction
O=C(Nc1cc(C(F)(F)F)cc(C(F)(F)F)c1)c1cc(Cl)ccc1O + NC(=O)c1ccc(N(C(N)=O)c2c(F)cccc2F)nc1-c1ccc(F)cc1F [VX702] (first compound 0.016 µM, partner dose 0.4 µM)	91.8%
CC[C@]1(O)C[C@H]2CN(CCc3c([nH]c4ccccc34)[C@@](C(=O)OC)(c3cc4c(cc3OC)N(C=O)[C@H]3[C@@](O)(C(=O)OC)[C@H](OC(C)=O)[C@]5(CC)C=CCN6CC[C@]43[C@@H]65)C2)C1 [vincristine] + COc1cc2ncnc(Nc3ccc(Oc4ccccc4)cc3)c2cc1OC [SrcI1] (first compound 0.0001 µM, partner dose 2 µM)	208%

Reference: the supplement of paper PMC4604168 (melanoma cell lines)
